The record followed here is paper PMC11082041.

Protein sequences, listed by entry. Tags and fused reporters are not part of them.
UniProt P51784: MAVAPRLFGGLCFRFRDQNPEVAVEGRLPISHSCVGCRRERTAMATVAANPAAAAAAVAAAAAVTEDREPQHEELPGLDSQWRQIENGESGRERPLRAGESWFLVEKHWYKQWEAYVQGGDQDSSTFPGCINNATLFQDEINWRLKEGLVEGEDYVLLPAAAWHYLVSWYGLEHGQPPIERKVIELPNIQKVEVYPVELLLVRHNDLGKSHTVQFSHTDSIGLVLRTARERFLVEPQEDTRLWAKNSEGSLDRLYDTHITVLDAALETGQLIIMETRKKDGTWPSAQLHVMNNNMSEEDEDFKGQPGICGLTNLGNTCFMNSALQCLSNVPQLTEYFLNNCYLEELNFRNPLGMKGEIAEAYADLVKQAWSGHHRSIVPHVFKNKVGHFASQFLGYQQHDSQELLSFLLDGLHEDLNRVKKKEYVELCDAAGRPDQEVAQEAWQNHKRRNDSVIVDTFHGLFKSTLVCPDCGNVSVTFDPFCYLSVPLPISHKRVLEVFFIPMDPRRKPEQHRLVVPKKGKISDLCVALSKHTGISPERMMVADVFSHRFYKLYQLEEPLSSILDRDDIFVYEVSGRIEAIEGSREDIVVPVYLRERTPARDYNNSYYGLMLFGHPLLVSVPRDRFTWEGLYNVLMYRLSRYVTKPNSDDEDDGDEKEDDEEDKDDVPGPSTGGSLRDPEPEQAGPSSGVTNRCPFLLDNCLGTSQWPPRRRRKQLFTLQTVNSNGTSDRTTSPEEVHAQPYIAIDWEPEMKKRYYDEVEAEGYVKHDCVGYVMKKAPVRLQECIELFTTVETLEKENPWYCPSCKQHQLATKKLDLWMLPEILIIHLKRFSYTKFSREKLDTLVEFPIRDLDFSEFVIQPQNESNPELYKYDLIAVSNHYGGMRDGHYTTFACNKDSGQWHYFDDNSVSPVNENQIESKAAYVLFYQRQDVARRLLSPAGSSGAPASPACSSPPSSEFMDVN
UniProt Q00444: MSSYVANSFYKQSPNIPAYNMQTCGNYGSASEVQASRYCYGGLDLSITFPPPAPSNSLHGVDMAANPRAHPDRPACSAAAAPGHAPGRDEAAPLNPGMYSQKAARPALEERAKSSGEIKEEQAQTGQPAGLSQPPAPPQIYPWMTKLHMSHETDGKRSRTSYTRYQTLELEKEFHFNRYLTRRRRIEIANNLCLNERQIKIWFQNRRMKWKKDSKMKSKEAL

Results are given in words; binding and its absence hold for the method and conditions named. In cells and extracts the contact can be indirect. Some results given as binding are weak or reduced against the parent protein; the word gives no strength.

Assay [1] deals with USP11 (human (endogenous in human SSC line)) (UniProt P51784). In words: co-IP; human SSC line lysate (RIPA buffer) supernatant incubated with antibody overnight at 4 °C; Protein A + G magnetic beads 1 h at room temperature; eluate analysed by Western blot; done in both directions (IP of USP11 and IP of HOXC5).
Assay [2] concerns the target HOXC5 (human (endogenous in human SSC line)) (UniProt Q00444). The description is as above.

In the case of HOXC5 (from UniProt Q00444 1-222), in assay [1], the binding result is “binds”.

Consider USP11 (from UniProt P51784 1-963), for which the binding entry in assay [2] was “binds”.
